Results taken from patent US8420776.
No constants are given. Whether binding was seen depends on the method and setting. Binding seen in cells or lysates may run through a third protein. Some results given as binding are weak or reduced against the parent protein; the word gives no strength. Sequences can lack the tags named with a protein.

The chains behind the UniProt entries cited, without tags or fusion partners. Where a name states a change or a piece, a line headed by the entry shows the natural chain unless it says otherwise.
UniProt P60604: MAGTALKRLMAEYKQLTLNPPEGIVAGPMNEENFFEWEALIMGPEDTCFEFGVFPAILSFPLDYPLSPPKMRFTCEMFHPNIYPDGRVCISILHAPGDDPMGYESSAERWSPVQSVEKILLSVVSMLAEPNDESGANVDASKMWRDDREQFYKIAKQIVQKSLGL

Assays:
[1] = target: Ube2G2/MmUbc7, in vitro translated and labelled with 35S-methionine (human (100% identical to mouse MmUbc7)) (UniProt P60604); experiment: GST pull-down, Ube2G2 translated in reticulocyte lysate, 35S-Met
[2] = target: Ube2G2/MmUbc7, in vitro translated and labelled with 35S-methionine (human (100% identical to mouse MmUbc7)) (UniProt P60604); experiment: GST pull-down, Ube2G2 in vitro translated in rabbit reticulocyte lysate

binding [1]: binds
binding [2]: binds
Binder: SADERQRMLVQRKDELLQQARKRFLNKSSEDDAAS (peptide, not shown: a dimerising Fc or GST) [GST fusion of gp78 amino acids 574-608 (of SEQ ID NO:2)]
